# Data as given in PubChem BioAssay AID652272 (Drosophila RNAi Screening Center, 2013)
# Test: 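Finding fly genes that regulate Hedgehog signal transduction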 (primary screen)
# Cells: Drosophila clone 8 (Cl8) cells
# Knock-down reagent: long dsRNA against Drosophila genes
# Read-out: 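Plate reader light from a firefly reporter under a ptc promoter fragment that responds to Hedgehog, with Renilla light as transfection reference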
# Scale: firefly Hh reporter signal: higher = more ptc reporter light; Renilla reference signal: higher = more Renilla control light
# Rule for the call: 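Hit when the z-score averaged over two replicates is under -2 or over +3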
# Calls: active = hit: reporter lowered or raised; inactive = not a hit
# The screen tested about 21,000 reagents; shown is an unselected part of those that have a named target and a result. In the full data, 503 (2.4%) got an active call. 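Raw plate light values, not normalised; calls rest on replicate z-scores that were not deposited; hits include reporter decreases as well as increases.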 Unmarked entries are inactive. Names joined by + are all predicted targets of the reagent. The record does not give: the amount of reagent, the time to read-out.
Target gene,amplicon,"firefly Hh reporter signal, replicate 1","firefly Hh reporter signal, replicate 2","firefly Hh reporter signal, replicate 3","Renilla reference signal, replicate 1","Renilla reference signal, replicate 2"
Ppa,DRSC04598,1.47e5,87121,,3803,6324
RpL4,DRSC16833,35453 (active),23873,,1180,1547
CG10435,DRSC14246,93115,69622,,4326,3009
CG15262,DRSC01975,68386,64390,,1739,5369
Cyp1,DRSC20234,96297,82009,,1825,1072
l(2)k05819,DRSC00826,1.01e5,74647,,4592,3155
CR18228,DRSC15317,78374,1.08e5,,2619,3051
CG34002,DRSC09512,6.19e5,3.19e5,1.32e5,5501,7906
mtDNA-helicase,DRSC02912,66967,43850,,1936,4074
CG8010,DRSC20072,1.25e5,85062,,3052,1649
CG1635,DRSC15131,1.23e5,79376,,3190,3226
Fem-1,DRSC07322,79258,48775,,2444,3490
ana2,DRSC05952,64884,55666,,2759,2188
tnc,DRSC14647,4.11e5,87162,,22384,2489
CG14459,DRSC11719,15942 (active),13549,,1424,448
CG13594,DRSC04229,73380,44810,,1547,5568
defl,DRSC10300,87731,44886,,3400,568
CG30457,DRSC06661,1.09e5,61254,,2866,4549
CG31997,DRSC17105,4.51e5,2.36e5,,21476,4706
Ndg,DRSC06223,59778,42141,,2795,1980
CG17267,DRSC15207,5.43e5,85840,,29125,6747
Cyp304a1,DRSC16623,1.02e5,98800,,2347,2123
mbt,DRSC20348,69492,1.18e5,,2404,4893
Damm,DRSC07393,1.14e5,81808,,3074,5724
CG6836,DRSC10722,91533,92517,,2548,3619
CG31528,DRSC12003,2.81e5,,,5973,
CG17321,DRSC02598,94480,52645,,2564,5633
GramD1B,DRSC00426,90562,70218,,2508,8330
GramD1B,DRSC00591,1.05e5,42516,,4273,2048
CG43740,DRSC17848,75720,87894,,2656,3335
CG43740,DRSC17994,1.57e5,3.86e5,,5458,14105
CG42271,DRSC19809,1.08e5,88362,,2595,2176
CG31650,DRSC03140,67543,45612,,3445,1799
d-cup,DRSC14846,91500,1.01e5,,3884,2120
CG2100,DRSC12303,1.10e5,84024,,4715,3386
CG11131,DRSC11636,1.37e5,2.07e5,,3654,6533
Cdk5,DRSC07359,1.12e5,79910,,4627,3265
Or35a,DRSC03389,1.05e5,69782,,2865,6278
PIG-Q,DRSC19138,7.50e5,2.49e5,,40645,5412
swa,DRSC18842,86026,72097,,2016,1616
CG1703,DRSC19764,1.03e5,58504,,2580,1650
CG33489,DRSC10588,69492,52701,52183,5074,3593
Vps11,DRSC11909,3.25e5,,,6165,
bic,DRSC07584,90248,59953,,4962,3496
CG5446,DRSC02862,75456,35927,,2214,3890
Alp4,DRSC14116,90099,1.68e5,,2979,4567
CG14070,DRSC02373,1.14e5,74384,,3216,6381
Cpr,DRSC03293,76787,1.18e5,,2952,4522
wat,DRSC14854,1.65e5,1.44e5,,6596,3617
Ubx,DRSC16891,1.45e5,5.31e5,1.24e5,4845,3253
CG11722,DRSC14358,1.40e5,1.13e5,,4390,3340
Ugt303B3,DRSC14199,5.41e5,83147,,30202,2469
Ir52d,DRSC06264,99632,39289,,2720,1457
CG6550,DRSC07001,1.20e5,78389,,4852,2499
BoYb,DRSC11637,1.48e5,1.02e5,,5987,4406
TotA,DRSC13448,59228,2.40e5,,12274,5683
CG8245,DRSC04901,1.26e5,95415,,2324,7524
SmydA-2,DRSC10296,78631,1.32e5,,1516,4120
CG5805,DRSC15878,1.36e5,87089,,5602,3267
rump,DRSC16480,90729,54273,,3657,2359
Iswi,DRSC07446,66684,49876,,1675,3000
wcd,DRSC07051,1.05e5,68116,,5594,3666
CG14456,DRSC11713,78298,1.07e5,,3075,2669
Chd1,DRSC00745,77830,72833,,3317,3399
CG6753,DRSC16108,1.23e5,1.60e5,,4544,4489
CG14095,DRSC10098,1.33e5,1.07e5,,4728,2904
Pal1 + Pdrg1,DRSC06587,1.02e5,77862,,2641,5914
CG31636,DRSC02276,72049,50983,,1827,4588
Smu1,DRSC15803,1.29e5,86296,,5108,2948
CG16781,DRSC18117,74205,1.89e5,,2080,6441
mv,DRSC08208,82407,47756,,2809,3043
mv,DRSC08570,89533,38865,,2876,3127
eIF4E4,DRSC09701,69430,68871,,581,2802

Part of the list above in another layout.
{"Target gene":"CG31528","amplicon":"DRSC12003","firefly Hh reporter signal, replicate 1":2.81e5,"Renilla reference signal, replicate 1":5973}
{"Target gene":"CG17321","amplicon":"DRSC02598","firefly Hh reporter signal, replicate 1":94480,"firefly Hh reporter signal, replicate 2":52645,"Renilla reference signal, replicate 1":2564,"Renilla reference signal, replicate 2":5633}
{"Target gene":"GramD1B","amplicon":"DRSC00426","firefly Hh reporter signal, replicate 1":90562,"firefly Hh reporter signal, replicate 2":70218,"Renilla reference signal, replicate 1":2508,"Renilla reference signal, replicate 2":8330}
{"Target gene":"GramD1B","amplicon":"DRSC00591","firefly Hh reporter signal, replicate 1":1.05e5,"firefly Hh reporter signal, replicate 2":42516,"Renilla reference signal, replicate 1":4273,"Renilla reference signal, replicate 2":2048}
{"Target gene":"CG43740","amplicon":"DRSC17848","firefly Hh reporter signal, replicate 1":75720,"firefly Hh reporter signal, replicate 2":87894,"Renilla reference signal, replicate 1":2656,"Renilla reference signal, replicate 2":3335}
